Data published in the supplement of paper PMC9254222.
Whole data set: some 1,100 compounds, median “Renilla luciferase signal (cell health) relative to plate median” near 0.97, cut for the highest 2% near 1.6. This is a selection; strong and weak results do not stand in their true shares.

System: HEK293T (UBE3A T485A transfected, BAR Wnt reporter)
Test: Renilla luciferase signal (cell health) relative to plate median (fold (linear ratio)); higher = higher Renilla signal
Details: 24 h
How it was run: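 HEK293T cells were seeded at 4500 cells/well in white 384-well plates and grown in DMEM with 10% FBS at 37°C and 5% CO2. The cells were transfected using Fugene 6 with a BAR firefly luciferase Wnt reporter, TK-Renilla and an expression plasmid, and four hours later robots added the chemicals at 0.01–100 uM for 24 h before a Dual-Glo luciferase readout. Wnt activity was taken as the firefly/Renilla ratio and cell health as raw Renilla, each median-centred per plate. Values are averages of four biological replicates.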

Structure (SMILES) | Renilla luciferase signal (concentration: 0.1 uM) | Renilla luciferase signal (concentration: 1 uM) | Renilla luciferase signal (concentration: 10 uM) | Renilla luciferase signal (concentration: 100 uM) | Renilla luciferase signal (concentration: 0.01 uM) | Renilla luciferase signal (concentration: .1 uM)
Cc1oc2c(NC(=O)c3c(Cl)cccc3Cl)cccc2c1C(C)(C)O | 1.07 | 0.836 | 0.823 | 0.0189 |  | 
O=C(O)c1ccccc1C(=O)OCc1ccccc1 [Monobenzyl phthalate] | 1.18 | 1.27 | 1.27 | 1.52 |  | 
CCCCCCCCCC [Decane] | 0.682 | 0.706 | 0.66 | 0.819 |  | 
O=C([O-])c1ccccc1.[Na+] [Sodium benzoate] | 1.2 | 1.1 | 0.949 | 1.16 |  | 
COc1ccc(CC(N)C(=O)NC2C(CO)OC(n3cnc4c(N(C)C)ncnc43)C2O)cc1 (configuration not stated) [Puromycin] | 0.717 | 0.0869 | 0.00541 | 0.00641 | 0.815 | 
NC1CCCCC1 [Cyclohexylamine] | 1.06 | 1 | 1.16 | 1.6 |  | 
CC(C)CC(C)O (configuration not stated) [4-Methyl-2-pentanol] | 0.909 | 0.933 | 0.917 | 1.04 |  | 
O=[Si]=O [Silica] | 0.524 | 0.58 | 0.763 | 0.873 |  | 
CC1(C)NC(=O)NC1=O [5,5-Dimethylhydantoin] | 1.21 | 1.06 | 1.28 | 1.42 |  | 
COc1ccc2cc(S(=O)(=O)NC(CC(=O)NC(Cc3ccc(CN4C(C)CCCC4C)cc3)C(=O)N(C)C(C)C)c3ccc4c(c3)OCO4)ccc2c1.Cl (configuration not stated) | 0.891 | 0.941 | 0.717 | 0.0302 |  | 
O=C(O)c1ccccc1 [Benzoic acid] |  |  |  | 1.77 |  | 
CS(=O)(=O)O.Cc1cc(CCN2CCN(c3nsc4ccccc34)CC2)cc2c1NC(=O)CC2(C)C | 0.732 | 0.744 | 0.441 | 0.0184 |  | 
CCCc1cc(=O)[nH]c(=S)[nH]1 [6-Propyl-2-thiouracil] | 0.55 | 0.608 | 0.692 | 0.473 |  | 
CCCCC(CC)COP(=O)(OCC(CC)CCCC)OCC(CC)CCCC (configuration not stated) [Tris(2-ethylhexyl) phosphate] | 1.07 | 0.912 | 1.13 | 1.42 |  | 
CC(=O)c1ccc2c(c1)[C@H](NC(=O)c1ccc(F)cc1)[C@@H](O)C(C)(C)O2 [Carabersat] | 1.08 | 1.09 | 1.32 | 1.23 |  | 
C[C@]12CC[C@@H]3c4ccc(O)cc4CC[C@H]3[C@@H]1CC[C@@H]2O [17beta-Estradiol] | 0.82 | 0.745 | 0.676 | 0.0341 |  | 
CC1COc2c(N3CCN(C)CC3)c(F)cc3c(=O)c(C(=O)O)cn1c23 (configuration not stated) [Levofloxacin] | 0.86 | 0.914 | 0.779 | 1.11 | 0.947 | 
C1N2CN3CN1CN(C2)C3 [Methenamine] | 0.953 | 0.93 | 1.02 | 1.19 |  | 
O=C([O-])c1[nH]n(-c2ccc(S(=O)(=O)[O-])cc2)c(=O)c1/N=N/c1ccc(S(=O)(=O)[O-])cc1.[Na+].[Na+].[Na+] [FD&C Yellow 5] | 1.1 | 1.15 | 1.15 | 0.999 |  | 
OC[C@@H](O)[C@@H](O)[C@H](O)[C@H](O)CO [D-Mannitol] | 1.02 | 1.01 | 1.1 | 1.32 |  | 
CC(C)(c1ccc(O)cc1)c1ccc(O)cc1 [Bisphenol A] | 0.92 | 0.907 | 0.858 | 0.151 | 0.878 | 

Three compounds already listed, ordered by length of the SMILES, smallest number first.
Structure (SMILES) | Renilla luciferase signal (concentration: 0.1 uM) | Renilla luciferase signal (concentration: 1 uM) | Renilla luciferase signal (concentration: 10 uM) | Renilla luciferase signal (concentration: 100 uM) | Renilla luciferase signal (concentration: 0.01 uM) | Renilla luciferase signal (concentration: .1 uM)
NC1CCCCC1 [Cyclohexylamine] | 1.06 | 1 | 1.16 | 1.6 |  | 
CCCc1cc(=O)[nH]c(=S)[nH]1 [6-Propyl-2-thiouracil] | 0.55 | 0.608 | 0.692 | 0.473 |  | 
CC1COc2c(N3CCN(C)CC3)c(F)cc3c(=O)c(C(=O)O)cn1c23 (configuration not stated) [Levofloxacin] | 0.86 | 0.914 | 0.779 | 1.11 | 0.947 | 

Following part:

Structure (SMILES) | Renilla luciferase signal (concentration: 0.1 uM) | Renilla luciferase signal (concentration: 1 uM) | Renilla luciferase signal (concentration: 10 uM) | Renilla luciferase signal (concentration: 100 uM) | Renilla luciferase signal (concentration: 0.01 uM) | Renilla luciferase signal (concentration: .1 uM)
COc1cc(/C=C/C(=O)CC(=O)/C=C/c2ccc(O)c(OC)c2)ccc1O [Curcumin] | 0.957 | 0.979 | 0.827 | 0.0168 | 0.828 | 
COC(=O)CCC(=O)OC [Dimethyl succinate] | 1.1 | 1.08 | 1.12 | 1.24 |  | 
Nc1nc(N)c2nc(CNc3ccc(C(=O)N[C@@H](CCC(=O)O)C(=O)O)cc3)cnc2n1 [4-Aminofolic acid] | 1.08 | 1.07 | 0.151 | 0.171 |  | 
O=C1O[C@H]([C@@H](O)CO)C([O-])=C1O.[Na+] [Sodium L-ascorbate] | 1.02 | 1.09 | 1.24 | 1.45 |  | 
CCOC(=O)COc1ccc2c(c1)CC(NCC(O)c1cccc(Cl)c1)CC2.Cl (configuration not stated) | 0.843 | 0.832 | 0.848 | 0.984 |  | 
CC(O)CN(CCN(CC(C)O)CC(C)O)CC(C)O (configuration not stated) [N,N,N',N'-Tetrakis(2-Hydroxypropyl)ethylenediamine] | 1.07 | 1.01 | 1.16 | 1.46 |  | 
Oc1ccc(C(c2ccc(O)cc2)C(Cl)(Cl)Cl)cc1 [2,2-Bis(4-hydroxyphenyl)-1,1,1-trichloroethane] | 1.15 | 1.03 | 0.88 | 0.0319 | 1.19 | 
Nc1nc(=O)c2nc(CNc3ccc(C(=O)N[C@@H](CCC(=O)O)C(=O)O)cc3)cnc2[nH]1 [Folic acid] | 0.935 | 0.934 | 1.07 | 1.19 |  | 
CC(C)(O)c1ccc(CNC(=O)c2cccnc2Oc2ccc3nonc3c2)cc1 | 0.961 | 0.975 | 0.999 | 0.124 |  | 
[Cl-].[K+] |  |  |  | 1.88 |  | 
Cc1ccc(C(C)C)cc1 [p-Cymene] | 1.03 | 0.949 | 1.11 | 1.51 |  | 
Cc1ccc(N(C)C)cc1 [N,N,4-Trimethylaniline] | 0.776 | 0.869 | 0.9 | 0.941 |  | 
CCC(C)=NO [2-Butanone oxime] | 1.07 | 1.14 | 1.17 | 1.51 |  | 
CCCOC(=O)c1cc(O)c(O)c(O)c1 [Propyl gallate] | 0.872 | 0.862 | 0.785 | 0.961 |  | 
CCC1(O)C(=O)OCc2c1cc1n(c2=O)Cc2cc3c(CN(C)C)c(O)ccc3nc2-1 (configuration not stated) [Topotecan] | 0.262 | 0.107 | 0.199 | 0.157 | 0.831 | 
O=[N+]([O-])c1ccc([O-])cc1.[Na+] [Sodium 4-nitrophenolate] | 0.98 | 0.86 | 0.924 | 0.669 |  | 
CCCCCCCCCCCCCCCO [1-Pentadecanol] | 0.983 | 1.26 | 1.07 | 1.38 |  | 
Cc1cc(F)ccc1-c1cc(N2CC[C@@H](O)[C@H]2CO)ncc1N(C)C(=O)C(C)(C)c1cc(C(F)(F)F)cc(C(F)(F)F)c1 | 1.21 | 1.17 | 1.16 | 0.172 |  | 
CCCCCCCCN(C)C [N,N-Dimethyloctylamine] | 0.788 | 0.836 | 1.01 | 1.05 |  | 
CC(C(C)N1CC(=O)NC(=O)C1)N1CC(=O)NC(=O)C1 (configuration not stated) | 0.674 | 0.785 | 0.383 | 0.396 | 0.735 | 
OC(CCl)CCl [1,3-Dichloro-2-propanol] | 0.799 | 0.886 | 1.05 | 1.03 |  | 

Structure (SMILES) | Renilla luciferase signal (concentration: 0.1 uM) | Renilla luciferase signal (concentration: 1 uM) | Renilla luciferase signal (concentration: 10 uM) | Renilla luciferase signal (concentration: 100 uM) | Renilla luciferase signal (concentration: 0.01 uM) | Renilla luciferase signal (concentration: .1 uM)
CC(=O)OC1CC(C)OC(C)O1 (configuration not stated) [Dimethoxane] | 1.23 | 1.1 | 1.26 | 1.63 |  | 
CCCCOCCO [2-Butoxyethanol] | 0.833 | 0.844 | 0.847 | 0.897 |  | 
Cc1[nH]nc2c1N=C(c1ccccc1Cl)c1cc([N+](=O)[O-])ccc1N2 | 0.56 | 0.0635 | 0.151 | 0.117 |  | 
CCc1nc(N)nc(N)c1-c1ccc(Cl)cc1 [Pyrimethamine] | 1.11 | 1.06 | 1.07 | 0.0813 |  | 
CC(C)C(=O)Nc1ccc([N+](=O)[O-])c(C(F)(F)F)c1 [Flutamide] | 0.736 | 0.814 | 0.649 | 0.307 |  | 
CC(=O)CC(c1ccccc1)c1c(O)c2ccccc2oc1=O (configuration not stated) [Warfarin] | 1.16 | 0.923 | 0.762 | 1.24 |  | 
O=C1CCCCC1 [Cyclohexanone] | 0.948 | 0.937 | 0.997 | 1.09 |  | 
O=c1nc(-c2ccc(C(F)(F)F)cc2)[nH]c2c1CSCC2 | 1.01 | 0.981 | 0.974 | 1.06 | 0.904 | 
Cl.O=C(c1ccc(OCCN2CCCCC2)cc1)c1c(-c2ccc(O)cc2)sc2cc(O)ccc12 [Raloxifene hydrochloride] | 0.885 | 0.889 | 0.863 | 0.022 |  | 
O=C(O)c1cccc(Oc2ccccc2)c1 [3-Phenoxybenzoic acid] | 0.986 | 1.02 | 1.07 | 1.07 |  | 
O=C(O)C1(C(=O)Nc2ccc(Cl)cc2Cl)CC1 [Cyclanilide] | 0.825 | 0.968 | 0.934 | 0.617 | 1.02 | 
OCC1OC(n2cnc3c(NC4CCCC4)ncnc32)C(O)C1O (configuration not stated) [N6-Cyclopentyl adenosine] | 1.03 | 0.94 | 0.856 | 1 | 1.18 | 
O=C(Oc1ccccc1)c1cccc(C(=O)Oc2ccccc2)c1 [Diphenyl isophthalate] | 0.764 | 0.859 | 0.84 | 1.1 |  | 
Cc1occc(=O)c1O [Maltol] | 0.895 | 0.982 | 0.967 | 1.11 |  | 
O=C([O-])Cc1ccccc1Nc1c(Cl)cccc1Cl.[Na+] [Diclofenac sodium] | 0.856 | 0.96 | 1.04 | 0.319 |  | 
CC(C)CCCCCCCOC(=O)CCCCC(=O)OCCCCCCCC(C)C [Diisodecyl hexanedioate] | 1.04 | 1.15 | 1.06 | 1.45 |  | 
NCCO [Ethanolamine] |  | 0.822 | 0.939 | 1.34 |  | 0.808
CC(C)CCCCCCOC(=O)c1ccc(C(=O)OCCCCCCC(C)C)c(C(=O)OCCCCCCC(C)C)c1 [Triisononyl trimellitate] | 1.14 | 1.15 | 1.21 | 1.29 |  | 
C[C@@H](Oc1ccc(CNC(=O)c2cccnc2Oc2ccc3c(c2)OCO3)c(F)c1)C(=O)O | 0.965 | 0.848 | 0.936 | 0.918 |  | 
c1ccc2cc3ccccc3cc2c1 [Anthracene] | 1.34 | 1.26 | 0.952 | 0.992 |  | 
COC(=O)c1ccc(I)cc1S(=O)(=O)[N-]C(=O)Nc1nc(C)nc(OC)n1.[Na+] [Iodosulfuron-methyl-sodium] | 1.38 | 1.19 | 1.05 | 1.46 | 1.16 | 
